In patent US5773431A (priority 1997, dated 1998):
At least one compound was matched to its structure with a doubt left.

Test system: rabbit smooth muscle cells
Test: Rabbit smooth muscle cell proliferation (formazan formation from MTS)
Type: cell-based
Details: 24 hr, p<0.01
Procedure: Cell proliferation at 24 hr was measured using formazan formation from MTS which is known to correlate with the number of cells present in each well.

SMILES: CC(CCC[C@@H](C)[C@H]1CC[C@H]2[C@@H]3CC=C4C[C@@H](O)CC[C@]4(C)[C@H]3CC[C@]12C)C(=O)O (stereo partly drawn) [3β-hydroxy-5-cholestenoic acid]
- Reduction of optical density compared to control wells: significant reduction
